# Measurements reported in the supplement of paper PMC8728848.
# The other results are listed elsewhere or left out.
# B1: LlpA (Arthrobacter sp) (protein)
# chain: MGSSHHHHHHSSGLVPRGSHMTLHPETALRPGAAATSPNSRYRLLYQTDGNLVLYGPDGPLWDSGTNGHGAGACIMQADGNLVLYGPNDEYVWDTETDNNPGSRLVIQDDGNAVIYRPDGSPLWATETCQPPGSADSHVLQSGSTLTPTHGIRSANGLYGLLYQTDGNLVFYGPDGPLWDSGTNGRGAGACIMQPDGNLVLYGPHDEYVWDTETDNNPGSRLVIQDDGNAVIYRPDGNPTWVTGTH
# What was measured:
# Assay in all cases: glycan array binding signal (z-score within array); higher = stronger binding
# Details in all cases: glycan notation: IUPAC condensed, linker removed
# GalNAc(b1-4)GlcNAc = molecular target: GalNAc(b1-4)GlcNAc
# In short: (§1)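 The binding signal is a Z-score computed within each array and averaged over linkers. Arrays of the same protein sequence at different concentrations or buffers were also averaged together. Data originate from 3228 arrays in the Consortium for Functional Glycomics database, kept only where the protein sequence was available.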
# [1] = molecular target: GalNAc(b1-4)GlcNAc(b1-2)Man
# In short: as §1
# [2] = molecular target: GalNAc(b1-4)GlcNAc(b1-2)Man(a1-3)[GalNAc(b1-4)GlcNAc(b1-2)Man(a1-6)]Man(b1-4)GlcNAc(b1-4)GlcNAc
# In short: as §1
# [3] = molecular target: GalNAc(b1-4)GlcNAc(b1-3)GalNAc(b1-4)GlcNAc
# In short: as §1
# GalNAc(b1-4)GlcNAc6S = molecular target: GalNAc(b1-4)GlcNAc6S
# In short: as §1
# GalNAc(b1-6)GalNAc = molecular target: GalNAc(b1-6)GalNAc
# In short: as §1
# GalNAc3S(b1-4)GlcNAc = molecular target: GalNAc3S(b1-4)GlcNAc
# In short: as §1
# GalNAc3S(b1-4)GlcNAc3S = molecular target: GalNAc3S(b1-4)GlcNAc3S
# In short: as §1
# [4] = molecular target: GalNAc3S(b1-4)[Fuc(a1-3)]GlcNAc
# In short: as §1
# GalNAc4S6S(b1-4)GlcNAc = molecular target: GalNAc4S6S(b1-4)GlcNAc
# In short: as §1
# GalNAc6S(b1-4)GlcNAc = molecular target: GalNAc6S(b1-4)GlcNAc
# In short: as §1
# Glc(a1-4)Glc = molecular target: Glc(a1-4)Glc
# In short: as §1
# [5] = molecular target: Glc(a1-4)Glc(a1-4)Glc(a1-4)Glc
# In short: as §1
# Glc(a1-6)Glc(a1-6)Glc = molecular target: Glc(a1-6)Glc(a1-6)Glc
# In short: as §1
# [6] = molecular target: Glc(a1-6)Glc(a1-6)Glc(a1-6)Glc
# In short: as §1
# Glc(b1-4)Glc = molecular target: Glc(b1-4)Glc
# In short: as §1
# Glc(b1-6)Glc = molecular target: Glc(b1-6)Glc
# In short: as §1
# GlcA(b1-3)Gal = molecular target: GlcA(b1-3)Gal
# In short: as §1
# GlcA(b1-3)GlcNAc = molecular target: GlcA(b1-3)GlcNAc
# In short: as §1
# GlcA(b1-6)Gal = molecular target: GlcA(b1-6)Gal
# In short: as §1
# [7] = molecular target: GlcA3S(b1-3)Gal(b1-4)GlcNAc(b1-2)Man
# In short: as §1
# [8] = molecular target: GlcA3S(b1-3)Gal(b1-4)GlcNAc(b1-3)Gal(b1-4)Glc
# In short: as §1
# [9] = molecular target: GlcNAc(a1-3)Gal(b1-4)GlcNAc
# In short: as §1
# [10] = molecular target: GlcNAc(a1-4)Gal(b1-3)GlcNAc
# In short: as §1
# [11] = molecular target: GlcNAc(a1-4)Gal(b1-4)GalNAc
# In short: as §1
# [12] = molecular target: GlcNAc(a1-4)Gal(b1-4)GlcNAc
# In short: as §1
# [13] = molecular target: GlcNAc(a1-4)Gal(b1-4)GlcNAc(b1-3)Gal(b1-4)Glc
# In short: as §1
# [14] = molecular target: GlcNAc(a1-4)Gal(b1-4)GlcNAc(b1-3)Gal(b1-4)GlcNAc
# In short: as §1
# [15] = molecular target: GlcNAc(a1-4)Gal(b1-4)GlcNAc(b1-3)Gal(b1-4)GlcNAc(b1-3)Gal(b1-4)GlcNAc
# In short: as §1
# [16] = molecular target: GlcNAc(a1-4)Gal(b1-4)GlcNAc(b1-3)Gal(b1-4)[Fuc(a1-3)]GlcNAc(b1-3)Gal(b1-4)[Fuc(a1-3)]GlcNAc
# In short: as §1
# [17] = molecular target: GlcNAc(a1-6)Gal(b1-4)GlcNAc
# In short: as §1
# [18] = molecular target: GlcNAc(b1-2)Gal(b1-3)GalNAc
# In short: as §1
# [19] = molecular target: GlcNAc(b1-2)Man(a1-3)[GlcNAc(b1-2)Man(a1-6)]Man(b1-4)GlcNAc(b1-4)GlcNAc
# In short: as §1
# [20] = molecular target: GlcNAc(b1-2)Man(a1-3)[GlcNAc(b1-2)Man(a1-6)]Man(b1-4)GlcNAc(b1-4)[Fuc(a1-6)]GlcNAc
# In short: as §1
# [21] = molecular target: GlcNAc(b1-2)Man(a1-3)[GlcNAc(b1-4)][GlcNAc(b1-2)Man(a1-6)]Man(b1-4)GlcNAc(b1-4)GlcNAc
# In short: as §1
# [22] = molecular target: GlcNAc(b1-2)Man(a1-3)[GlcNAc(b1-4)][GlcNAc(b1-2)Man(a1-6)]Man(b1-4)GlcNAc(b1-4)[Fuc(a1-6)]GlcNAc
# In short: as §1
# [23] = molecular target: GlcNAc(b1-2)[GlcNAc(b1-4)]Man(a1-3)[GlcNAc(b1-2)Man(a1-6)]Man(b1-4)GlcNAc(b1-4)GlcNAc
# In short: as §1
binder,measurement,setting,value
B1,glycan array binding signal (z-score),GalNAc(b1-4)GlcNAc,1.06
same,glycan array binding signal (z-score),[1],0.023
same,glycan array binding signal (z-score),[2],-0.231
same,glycan array binding signal (z-score),[3],-0.389
same,glycan array binding signal (z-score),GalNAc(b1-4)GlcNAc6S,0.851
same,glycan array binding signal (z-score),GalNAc(b1-6)GalNAc,-0.224
same,glycan array binding signal (z-score),GalNAc3S(b1-4)GlcNAc,0.127
same,glycan array binding signal (z-score),GalNAc3S(b1-4)GlcNAc3S,1.09
same,glycan array binding signal (z-score),[4],-0.304
same,glycan array binding signal (z-score),GalNAc4S6S(b1-4)GlcNAc,0.428
same,glycan array binding signal (z-score),GalNAc6S(b1-4)GlcNAc,-0.863
same,glycan array binding signal (z-score),Glc(a1-4)Glc,0.07
same,glycan array binding signal (z-score),[5],0.908
same,glycan array binding signal (z-score),Glc(a1-6)Glc(a1-6)Glc,-0.331
same,glycan array binding signal (z-score),[6],-0.723
same,glycan array binding signal (z-score),Glc(b1-4)Glc,-0.525
same,glycan array binding signal (z-score),Glc(b1-6)Glc,-1.07
same,glycan array binding signal (z-score),GlcA(b1-3)Gal,-0.288
same,glycan array binding signal (z-score),GlcA(b1-3)GlcNAc,-0.445
same,glycan array binding signal (z-score),GlcA(b1-6)Gal,0.793
same,glycan array binding signal (z-score),[7],-0.071
same,glycan array binding signal (z-score),[8],-0.598
same,glycan array binding signal (z-score),[9],0.79
same,glycan array binding signal (z-score),[10],-1.22
same,glycan array binding signal (z-score),[11],-1.04
same,glycan array binding signal (z-score),[12],-0.236
same,glycan array binding signal (z-score),[13],0.389
same,glycan array binding signal (z-score),[14],0.201
same,glycan array binding signal (z-score),[15],-0.479
same,glycan array binding signal (z-score),[16],1.36
same,glycan array binding signal (z-score),[17],-0.465
same,glycan array binding signal (z-score),[18],-0.298
same,glycan array binding signal (z-score),[19],-0.164
same,glycan array binding signal (z-score),[20],0.588
same,glycan array binding signal (z-score),[21],-0.798
same,glycan array binding signal (z-score),[22],-0.226
same,glycan array binding signal (z-score),[23],-0.068

# 3 records picked at random from those above, as already listed:
binder,measurement,setting,value
B1,glycan array binding signal (z-score),GalNAc6S(b1-4)GlcNAc,-0.863
same,glycan array binding signal (z-score),GalNAc3S(b1-4)GlcNAc,0.127
same,glycan array binding signal (z-score),[17],-0.465
